Results taken from PubChem BioAssay AID587 (National Center for Advancing Translational Sciences (NCATS), 2007).
Among all 59,000 compounds or so, about 35 (0.06%) were called active. The shares of active, inactive and inconclusive entries below differ from those in the screen. Rule as the data show it: active = max dye-equivalent concentration above about 10 nM; inconclusive = between about 1.1 nM and that limit; inactive = weaker than that.

Test: qHTS Assay for Spectroscopic Profiling in Texas Red Spectral Region
Details: Compound fluorescence, Texas Red channel, 547/618 nm; hits give high values
Procedure, shortened: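 Spectral interference profiling: each compound concentration's relative fluorescence, read with a 547 nm excitation and 618 nm emission filter pair, was normalized to a per-plate Texas Red standard curve.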
In the case of `CCOC(=O)c1ccc2ncc(C(=O)OCC)c(NCc3ccco3)c2c1`, the max dye-equivalent concentration is reported as inconclusive: 1.1 nM. With `CC12CCC(=O)N1C(C(=O)OCC(=O)Nc1sccc1C#N)CS2` (stereo unspecified) the max dye-equivalent concentration was inconclusive: 1.5 nM. In the case of `CCOC(=O)c1cccc(NC(=O)CSc2nc3cccnc3n2C)c1`, the max dye-equivalent concentration is reported as inconclusive: 1.9 nM. For `Cc1cc(C(=O)OCC(=O)Nc2ccc(F)cc2F)c(C)o1`, the max dye-equivalent concentration was inconclusive: 1.5 nM. In the case of `O=C1CC(N2CCN(c3ccc(Cl)c(Cl)c3)CC2)C(=O)N1` (stereo unspecified), the max dye-equivalent concentration is reported as inconclusive: 1.2 nM. In the case of `Oc1ccc2c(c1)C1CCCC1(N1CCOCC1)O2` (stereo unspecified), the max dye-equivalent concentration is reported as inconclusive: 1.3 nM. With `CSC1=C(C#N)C(c2ccccc2C)C(C#N)=C(N)N1` (stereo unspecified) the max dye-equivalent concentration was inconclusive: 1.5 nM. For `O=C(NCCCN1CCOCC1)C1CC(=O)N(CCc2ccccc2)C1` (stereo unspecified), the max dye-equivalent concentration was inconclusive: 1.1 nM. With `CCOc1ncccc1C(=O)Nc1ccccc1C(=O)NCc1ccc2c(c1)OCO2` the max dye-equivalent concentration was inconclusive: 2.3 nM. With `O=C(Nc1cccc(NS(=O)(=O)c2ccc(S(=O)(=O)NC3CC3)cc2)c1)c1ccccn1` the max dye-equivalent concentration was inconclusive: 1.7 nM. With `Nc1nc2ccc(N3CCOCC3)cc2s1` the max dye-equivalent concentration was inconclusive: 1.1 nM. With `O=C1C=CC(=O)c2c1ccc1c2ccc2ccccc21` the max dye-equivalent concentration was “inactive”. For `CCCS(=O)(=O)N1CCCC(C(=O)NCc2ccc(C)cc2)C1` (stereo unspecified), the max dye-equivalent concentration was inconclusive: 1.3 nM. In the case of `O=C(/C=N/O)Nc1ccc(F)cc1`, the max dye-equivalent concentration is reported as inconclusive: 1.3 nM. In the case of `COC(=O)c1cccc(NC2CC(=O)N(c3ccc(OC)c(OC)c3)C2=O)c1` (stereo unspecified), the max dye-equivalent concentration is reported as inconclusive: 1.4 nM. In the case of `COc1cc(NC(=O)CN2C(=O)NC(C)(CC(C)C)C2=O)cc(OC)c1` (stereo unspecified), the max dye-equivalent concentration is reported as inconclusive: 1.3 nM. With `Cc1cccc(Nc2cc(Cl)nc(SCC(=O)O)n2)c1C` the max dye-equivalent concentration was inconclusive: 1.2 nM. For `CCCc1cc(N2CCCC(C(=O)Nc3c(OC)cccc3OC)C2)n2ncnc2n1` (stereo unspecified), the max dye-equivalent concentration was inconclusive: 2.1 nM. With `Cc1ccc(-c2nn(-c3ccccc3)c3[nH]c(=O)c(CNCCN(C)C)cc23)cc1` the max dye-equivalent concentration was inconclusive: 1.2 nM. For `c1ccc(-c2nc3nonc3nc2-c2ccccc2)cc1`, the max dye-equivalent concentration was inconclusive: 1.3 nM. With `CC(=O)Nc1ccc(N=Cc2nc(-c3ccc(C)cc3)oc2O)cc1` the max dye-equivalent concentration was “inactive”. For `CCOC(=O)c1cccc(NC(=O)CSc2nc3ccccc3c(=O)n2CCOC)c1`, the max dye-equivalent concentration was inconclusive: 1.7 nM. In the case of `O=C1C2CC=C(Cl)CC2C(=O)N1CNc1ccccn1` (stereo unspecified), the max dye-equivalent concentration is reported as “inactive”. For `C[C@@]12CC[C@@H]3[C@H](CCC4=CC(=O)CC[C@]43C)[C@@H]1CC[C@@H]2C(=O)COS(=O)(=O)c1ccc(Br)cc1`, the max dye-equivalent concentration was “inactive”. With `CCCC1(c2ccccc2)NC(=O)N(CC(=O)c2[nH]c(C)c(C(=O)OCC)c2C)C1=O` (stereo unspecified) the max dye-equivalent concentration was inconclusive: 1.9 nM. With `NC(=O)C1CCN(C(=O)CCCCCn2c(=O)[nH]c3ccsc3c2=O)CC1` the max dye-equivalent concentration was inconclusive: 1.4 nM. For `c1ccc([P+](CC[P+](c2ccccc2)(c2ccccc2)c2ccccc2)(c2ccccc2)c2ccccc2)cc1`, the max dye-equivalent concentration was “inactive”. With `N[C@@H](Cc1c[nH]c2ccccc12)C(=O)NCC(=O)O` the max dye-equivalent concentration was “inactive”. For `Cc1cc2cc(CNC(=O)CC(C)C)ccc2n1C`, the max dye-equivalent concentration was inconclusive: 1.2 nM. In the case of `COc1cccc(C(=O)N2CCN(c3ncccn3)CC2)c1`, the max dye-equivalent concentration is reported as inconclusive: 1.4 nM. For `C[C@H](N)C1CCC(C(=O)Nc2ccncc2)CC1` (stereo partly specified), the max dye-equivalent concentration was inconclusive: 1.8 nM. In the case of `CN1CCN(S(=O)(=O)c2ccc(NC(=O)c3ccc(Br)s3)cc2)CC1`, the max dye-equivalent concentration is reported as inconclusive: 1.6 nM. With `COc1cccc(-n2c(SCC(=O)NCCc3ccccc3)nnc2-c2ccoc2C)c1` the max dye-equivalent concentration was inconclusive: 2 nM. With `Cc1ccc(Cn2c(=N)n(CC(O)c3ccco3)c3ccccc32)cc1` (stereo unspecified) the max dye-equivalent concentration was inconclusive: 1.1 nM. In the case of `Cc1ccc(N2CCN(CC(O)COC3CCCCC3)CC2)cc1` (stereo unspecified), the max dye-equivalent concentration is reported as inconclusive: 1.1 nM. In the case of `O=C(Nc1ccc2c(c1)OCO2)N1CCN(c2ncccn2)CC1`, the max dye-equivalent concentration is reported as inconclusive: 1.7 nM. For `Cc1nc2nc(SCC(=O)C(C)(C)C)[nH]c2cc1Br`, the max dye-equivalent concentration was inconclusive: 1.2 nM. With `O=C(CSc1nc2ccccc2n1CC(=O)N1CCCC1)Nc1ccc2c(c1)OCO2` the max dye-equivalent concentration was inconclusive: 1.5 nM. For `COC(=O)C(C)Sc1nnc(SC(C)C(=O)OC)s1` (stereo unspecified), the max dye-equivalent concentration was inconclusive: 1.2 nM. For `CCOC(=O)c1cc(-c2cccs2)nc2onc(C)c12`, the max dye-equivalent concentration was inconclusive: 1.6 nM. For `COc1cccc(-c2cn3nc(C)c(C)nc3n2)c1`, the max dye-equivalent concentration was “inactive”. In the case of `CCn1ncc(Cl)c1C(=O)NC(C)c1ccccc1` (stereo unspecified), the max dye-equivalent concentration is reported as inconclusive: 1.3 nM. In the case of `CCn1c(COc2ccc(C)cc2)nnc1SCC(=O)C(C)(C)C`, the max dye-equivalent concentration is reported as inconclusive: 1.3 nM. In the case of `Cn1ccnc1SCC(=O)c1ccc(Br)cc1`, the max dye-equivalent concentration is reported as inconclusive: 1.1 nM. For `O=C(NCc1ccco1)C1CCN(S(=O)(=O)N2CCC3(CC2)OCCO3)CC1`, the max dye-equivalent concentration was inconclusive: 1.1 nM. In the case of `O=C(CCC1CCCCC1)NCc1ccncc1`, the max dye-equivalent concentration is reported as inconclusive: 1.7 nM. In the case of `Cc1nnc(SCC(=O)Nc2ccc3c(c2)OCCO3)s1`, the max dye-equivalent concentration is reported as inconclusive: 1.5 nM. In the case of `CC(C)CCNc1ncnc2[nH]ncc12`, the max dye-equivalent concentration is reported as “inactive”. For `COc1ccc(-n2c(=O)c(-c3cccc(Cl)c3)nc3cncnc32)cc1`, the max dye-equivalent concentration was inconclusive: 1.1 nM. In the case of `COc1ccc(N(CC(=O)Nc2cc(C)on2)S(=O)(=O)c2cc(C)ccc2C)cc1`, the max dye-equivalent concentration is reported as inconclusive: 1.1 nM. With `CCc1nc(OCCN(C)C)c2oc3ccccc3c2n1` the max dye-equivalent concentration was inconclusive: 1.5 nM. In the case of `Cc1ccc(S(=O)(=O)N[C@H](C(=O)N2CCC(C(=O)NCC(=O)O)CC2)C(C)C)cc1`, the max dye-equivalent concentration is reported as inconclusive: 1.5 nM. In the case of `COc1cc(OC)c(C2C(C#N)=C(N)Oc3cc(C)n(CCCN4CCOCC4)c(=O)c32)cc1OC` (stereo unspecified), the max dye-equivalent concentration is reported as inconclusive: 1.4 nM. With `Cc1ccc(S(=O)(=O)NCCCN2CCOCC2)cc1C` the max dye-equivalent concentration was inconclusive: 1.7 nM. For `CC(C)N(C(=O)CSc1nnc(CN2CCCCCC2=O)n1-c1ccccn1)C(C)C`, the max dye-equivalent concentration was “inactive”. With `Cc1cc2oc(=O)cc(COC(=O)Cn3cnnn3)c2cc1C(C)C` the max dye-equivalent concentration was inconclusive: 1.1 nM. For `COc1ccc(C(=O)Nc2ccc(-c3ccc(C)o3)cc2)cc1S(=O)(=O)N1CCOCC1`, the max dye-equivalent concentration was inconclusive: 1.6 nM. For `O=C(NCCc1ccc(Cl)cc1)C1CCN(S(=O)(=O)c2cccc3nonc23)CC1`, the max dye-equivalent concentration was inconclusive: 1.4 nM. With `Cc1cccc(-n2nnnc2SCC(=O)c2cc(C)n(CC3CCCO3)c2C)c1` (stereo unspecified) the max dye-equivalent concentration was inconclusive: 1.5 nM. In the case of `CC(=O)O[C@H]1CC[C@@]2(C)[C@@H](CC[C@H]3[C@H]2CC(=O)[C@@]2(C)[C@@H]3C[C@H]3CC(C)=CC(=O)[C@H]32)C1`, the max dye-equivalent concentration is reported as inconclusive: 1.4 nM. In the case of `Cc1cc(N2CCCCC2)nc2ccc(Cc3ccc4nc(N5CCCCC5)cc(C)c4c3)cc12`, the max dye-equivalent concentration is reported as “inactive”. In the case of `CC(C(=O)N1CCN(C=O)CC1)N1C(=O)c2ccccc2C1=O` (stereo unspecified), the max dye-equivalent concentration is reported as inconclusive: 1.7 nM. With `CC1(C)O[C@H]2[C@@H](O1)[C@@H](On1nnc3ccc(Cl)cc31)O[C@@H]2[C@@H]1COC(C)(C)O1` the max dye-equivalent concentration was inconclusive: 1.2 nM. With `COc1cc(-c2nnc3sc(-c4ccncc4)nn23)cc(OC)c1OC` the max dye-equivalent concentration was inconclusive: 1.5 nM. In the case of `CN(CC(=O)N1CCCC1)S(=O)(=O)c1cc(Cl)ccc1Cl`, the max dye-equivalent concentration is reported as inconclusive: 2.2 nM. With `Cc1csc(NC(=O)CCCSc2nc3ccccc3s2)n1` the max dye-equivalent concentration was inconclusive: 2.1 nM. For `CCOC(=O)C1CCN(C(=O)c2ccccc2N(C)S(C)(=O)=O)CC1`, the max dye-equivalent concentration was inconclusive: 1.3 nM. With `O=c1c2c([nH]c3ccccc13)CCCCCC2` the max dye-equivalent concentration was inconclusive: 1.1 nM. In the case of `CCNc1nc(N)nc(Oc2ccc(OCCOc3ccc(Cl)cc3Cl)nn2)n1`, the max dye-equivalent concentration is reported as inconclusive: 2.4 nM. With `CCOC(=O)c1cc2c(=O)n3ccccc3nc2n(Cc2ccc(Cl)cc2)c1=N` the max dye-equivalent concentration was “inactive”. In the case of `CN(c1ccc(O)cc1)c1nc(-c2ccccc2)cs1`, the max dye-equivalent concentration is reported as inconclusive: 2.8 nM. In the case of `CNCCC=C1c2ccccc2CCc2ccccc21`, the max dye-equivalent concentration is reported as inconclusive: 1.1 nM. With `COc1ccc(Oc2coc3cc(OC(=O)N4CCOCC4)ccc3c2=O)cc1` the max dye-equivalent concentration was inconclusive: 1.6 nM. For `CC(CN1CCN(C)CC1)OC(=O)c1ccc(Cl)cc1` (stereo unspecified), the max dye-equivalent concentration was inconclusive: 2.1 nM. For `COC(=O)C1CCN(C(=O)CSc2nnc(-c3ccncc3)o2)CC1`, the max dye-equivalent concentration was inconclusive: 1.4 nM. In the case of `COc1cc(Cn2c(-c3nonc3N)nc3ccccc32)ccc1C`, the max dye-equivalent concentration is reported as inconclusive: 1.5 nM. In the case of `CC(C)(C)n1nc(C2CC2)cc1NC(=O)Nc1ccc(Cl)cc1`, the max dye-equivalent concentration is reported as inconclusive: 1.1 nM. For `COc1ccccc1N(CC(=O)NC(C)(C)C)C(=O)Cn1nnc(-c2ccc(C)o2)n1`, the max dye-equivalent concentration was inconclusive: 1.2 nM. For `Cc1nc2cc(-c3cccc(Cl)c3)nn2c(N2CCN(C(=O)c3ccco3)CC2)c1C`, the max dye-equivalent concentration was inconclusive: 1.1 nM. For `CCCCOc1ccc(C(=O)O)cc1`, the max dye-equivalent concentration was inconclusive: 1.6 nM. In the case of `CCOC(=O)c1ccc(NCc2ccc3c(c2)OCO3)cc1`, the max dye-equivalent concentration is reported as inconclusive: 1.2 nM. In the case of `CCOC(=O)c1ccc(NC(=O)Nc2ccc(OC)c(OC)c2)cc1`, the max dye-equivalent concentration is reported as inconclusive: 1.4 nM. With `Cc1cc(NC(=O)c2cc3n(n2)C(C(F)(F)F)CC(c2ccco2)N3)n(-c2ccccc2)n1` (stereo unspecified) the max dye-equivalent concentration was inconclusive: 1.1 nM. In the case of `O=C(O)C1=CCNCC1`, the max dye-equivalent concentration is reported as inconclusive: 1.3 nM. For `CCOC(=O)c1sc2nc(C)cc(C)c2c1NC(=O)c1ccco1`, the max dye-equivalent concentration was inconclusive: 3 nM. In the case of `CNc1ncnc2c1ncn2[C@H]1C[C@@H](OP(=O)(O)O)[C@H](COP(=O)(O)O)O1`, the max dye-equivalent concentration is reported as “inactive”.
